Results: PubChem BioAssay AID256 (DTP/NCI, 2004)
The list shows only some results of the screen, not a fair sample: it gathers tests that were run many times, whatever their T/C, doses with no T/C, and many T/C values between a quarter and a half above the control. Other doses and runs of a compound stand elsewhere. T/C is the treated group as % of the vehicle group. Some doses have a count of surviving animals in place of a T/C: the source holds a T/C of zero for them, seemingly a mark for toxic or unscored doses. Some doses without a T/C left all or most animals alive at the check, yet need not have been tolerated: the source hardly ever lists a survival T/C far under the control, and the zero likely stands for such cases as well. Counts of survivors are from the toxicity check (mostly the fifth day) where no day follows; animals may have died later. Schedules are NCI's codes, taken here to give the interval after Q, in days (D) or hours (H), and the number of doses after X. Some doses were run more than once; the values are given in rising order. For survival time, the PubChem record calls one and a half times the control and up active, and a quarter to a half above the control has no call in these data; cut-offs in other NCI protocols can differ.

Test system: CD2F1 mice, L1210 leukemia ip, survival T/C
Assay: NCI In Vivo Anticancer Drug Screen. Data for tumor model L1210 Leukemia (intraperitoneal) in CD2F1 (CDF1) mice
Details: higher T/C = longer survival
Outline: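 Ratio T/C, where T is the treated-group value and C the vehicle-dosed control value, from mice implanted with a transplantable tumor.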

[1] = T/C endpoint: mean survival time, dose: 200.0 mg/kg/injection, schedule: Q04DX003 (ip), vehicle: acetone
[2] = T/C endpoint: mean survival time, dose: 400.0 mg/kg/injection, schedule: Q04DX003 (ip), vehicle: acetone
[3] = T/C endpoint: mean survival time, dose: 400.0 mg/kg/injection, schedule: Q04DX002 (ip), vehicle: saline with Tween-80
[4] = T/C endpoint: mean survival time, dose: 400.0 mg/kg/injection, schedule: Q01DX001 (ip), vehicle: saline with Tween-80
[5] = T/C endpoint: mean survival time, dose: 100.0 mg/kg/injection, schedule: Q01DX009 (ip), vehicle: saline with Tween-80
[6] = T/C endpoint: mean survival time, dose: 200.0 mg/kg/injection, schedule: Q04DX003 (ip), vehicle: saline
[7] = T/C endpoint: mean survival time, dose: 400.0 mg/kg/injection, schedule: Q04DX003 (ip), vehicle: saline
[8] = T/C endpoint: mean survival time, dose: 200.0 mg/kg/injection, schedule: Q04DX003 (ip), vehicle: saline with Tween-80
[9] = T/C endpoint: mean survival time, dose: 400.0 mg/kg/injection, schedule: Q04DX003 (ip), vehicle: saline with Tween-80
[10] = T/C endpoint: mean survival time, dose: 200.0 mg/kg/injection, schedule: Q01DX001 (ip), vehicle: saline with Tween-80

Cc1ccc2c3csc4ccccc4c-3nc2c1
survivor count (T/C endpoint: mean survival time, dose: 100.0 mg/kg/injection, schedule: Q04DX003 (ip), vehicle: acetone): 0 of 6
survivor count [1]: 1 of 6
survivor count [2]: 0 of 6

O=C(O)c1cc(F)ccc1Cl
survivor count [3]: 2 of 3

CCN(CC)CCSCCSCCN(CC)CC
survivor count (T/C endpoint: mean survival time, dose: 400.0 mg/kg/injection, schedule: Q01DX001 (ip), vehicle: saline): 0 of 6

c1ccc2c(c1)OP(OP1Oc3ccccc3O1)O2
survivor count [1]: 3 of 6
survivor count [2]: 0 of 6

COc1ccc(NC(=O)Nc2cc(Cl)c(OC)cc2OC)cc1
survivor count [3]: 3 of 3

CC(=O)N/N=C\C1=CCC=C(Br)S1
survivor count [4]: 3 of 6

O=C(O)c1ccc(N2C(=O)C=CC2=O)cc1 (tested in a mixture with another compound)
survivor count [5]: 0 of 6
survivor count (T/C endpoint: mean survival time, dose: 200.0 mg/kg/injection, schedule: Q01DX009 (ip), vehicle: saline with Tween-80): 0 of 6
survivor count (T/C endpoint: mean survival time, dose: 400.0 mg/kg/injection, schedule: Q01DX009 (ip), vehicle: saline with Tween-80): 0 of 6

O=C(C[n+]1cccc(C(=O)NCc2ccccc2)c1)Nc1ccc(Cl)cc1
survivor count [6]: 1 of 6
survivor count [7]: 0 of 6

CC[C@@]1(O)C(=O)OCc2c1cc1n(c2=O)Cc2cc3c(OC)cccc3nc2-1
T/C (T/C endpoint: mean survival time, dose: 0.5 mg/kg/injection, schedule: Q01DX009 (ip), vehicle: saline with Tween-80): 130 % of control
T/C (T/C endpoint: mean survival time, dose: 1.0 mg/kg/injection, schedule: Q01DX009 (ip), vehicle: saline): 136 % of control
T/C (T/C endpoint: mean survival time, dose: 1.5 mg/kg/injection, schedule: Q01DX009 (ip), vehicle: saline): 143 % of control
T/C (T/C endpoint: mean survival time, dose: 1.9 mg/kg/injection, schedule: Q04DX003 (ip), vehicle: water): 131 % of control
survivor count (T/C endpoint: mean survival time, dose: 6.25 mg/kg/injection, schedule: Q01DX009 (ip), vehicle: saline with Tween-80): 5 of 6
survivor count (T/C endpoint: mean survival time, dose: 12.5 mg/kg/injection, schedule: Q01DX009 (ip), vehicle: saline with Tween-80): 4 of 6
survivor count (T/C endpoint: mean survival time, dose: 15.0 mg/kg/injection, schedule: Q04DX003 (ip), vehicle: water): 6 of 6
survivor count (T/C endpoint: mean survival time, dose: 16.0 mg/kg/injection, schedule: Q04DX003 (ip), vehicle: other): 4 of 6
survivor count (T/C endpoint: mean survival time, dose: 25.0 mg/kg/injection, schedule: Q01DX009 (ip), vehicle: saline with Tween-80): 0 of 6
survivor count (T/C endpoint: mean survival time, dose: 30.0 mg/kg/injection, schedule: Q04DX003 (ip), vehicle: water): 3 of 6
survivor count (T/C endpoint: mean survival time, dose: 50.0 mg/kg/injection, schedule: Q01DX009 (ip), vehicle: saline with Tween-80): 0 of 6

Nc1ncn(C2CC(O)C(CO)O2)c(=O)n1 (stereo unspecified)
T/C (T/C endpoint: mean survival time, dose: 2.0 mg/kg/injection, schedule: Q01DX009 (ip), vehicle: Klucel (hydroxypropylcellulose) (HPC)): 128 % of control
T/C (T/C endpoint: mean survival time, dose: 2.0 mg/kg/injection, schedule: Q01DX009 (ip), vehicle: saline): 143 and 149 % of control
T/C (T/C endpoint: mean survival time, dose: 4.0 mg/kg/injection, schedule: Q01DX009 (ip), vehicle: saline): 126 % of control
T/C (T/C endpoint: mean survival time, dose: 133.0 mg/kg/injection, schedule: Q04DX003 (ip), vehicle: saline with Tween-80): 130 % of control
T/C [8]: 127 % of control
T/C (T/C endpoint: mean survival time, dose: 300.0 mg/kg/injection, schedule: Q04DX003 (ip), vehicle: saline with Tween-80): 139 % of control
T/C (T/C endpoint: median survival time, dose: 2.0 mg/kg/injection, schedule: Q01DX009 (ip), vehicle: saline): 131 % of control
T/C (T/C endpoint: median survival time, dose: 4.0 mg/kg/injection, schedule: Q01DX009 (ip), vehicle: saline): 137 % of control

CCCCC(=O)NN
survivor count [5]: 5 of 6

COC1OC2COc3ccccc3OC2C(N)C1N(C)c1ccccc1 (stereo unspecified)
survivor count (T/C endpoint: mean survival time, dose: 300.0 mg/kg/injection, schedule: Q01DX001 (ip), vehicle: saline with Tween-80): 3 of 6

C[N+](C)(C)CCOC(=O)CCC(=O)OCC[N+](C)(C)C
survivor count (T/C endpoint: mean survival time, dose: 5.0 mg/kg/injection, schedule: Q04DX003 (ip), vehicle: saline): 2 of 6
survivor count (T/C endpoint: mean survival time, dose: 10.0 mg/kg/injection, schedule: Q04DX003 (ip), vehicle: saline): 1 of 6
survivor count (T/C endpoint: mean survival time, dose: 20.0 mg/kg/injection, schedule: Q04DX003 (ip), vehicle: saline): 0 of 6
survivor count (T/C endpoint: mean survival time, dose: 25.0 mg/kg/injection, schedule: Q04DX003 (ip), vehicle: saline): 5 of 6
survivor count (T/C endpoint: mean survival time, dose: 100.0 mg/kg/injection, schedule: Q04DX003 (ip), vehicle: saline): 0 of 6
survivor count [6]: 0 of 6
survivor count [7]: 0 of 6

O=[N+]([O-])c1cc2ccccc2c(O)c1O
survivor count [5]: 1 of 6
survivor count [8]: 6 of 6
survivor count [9]: 0 of 6

Cc1cc(SCc2ccccc2)cc(C)[o+]1
survivor count (T/C endpoint: mean survival time, dose: 300.0 mg/kg/injection, schedule: Q01DX001 (ip), vehicle: saline): 0 of 6

O=c1c(-c2ccccc2)c1-c1ccccc1
survivor count [8]: 5 of 6
survivor count [9]: 3 of 6

CC12CCC(OC3CCCCO3)CC1=CCC1C2CCC2(C)C1CCC21CCNP(=O)(N(CCCl)CCCl)O1 (stereo unspecified)
survivor count (T/C endpoint: mean survival time, dose: 200.0 mg/kg/injection, schedule: Q01DX005 (ip), vehicle: other): 3 of 3

CC(C)(C[NH-])C[NH-].[Cl][Pt+2]([Cl])([Cl])[Cl]
T/C (T/C endpoint: median survival time, dose: 0.4 mg/kg/injection, schedule: Q04DX003 (ip), vehicle: water): 125 % of control
T/C (T/C endpoint: median survival time, dose: 0.8 mg/kg/injection, schedule: Q04DX003 (ip), vehicle: water): 138, 147, 148 % of control
survivor count (T/C endpoint: median survival time, dose: 6.25 mg/kg/injection, schedule: Q04DX003 (ip), vehicle: distilled water + Tween-80): 6 of 6
survivor count (T/C endpoint: median survival time, dose: 6.4 mg/kg/injection, schedule: Q04DX003 (ip), vehicle: water): 5 of 6 and 6 of 6
survivor count (T/C endpoint: median survival time, dose: 12.5 mg/kg/injection, schedule: Q04DX003 (ip), vehicle: distilled water + Tween-80): 5 of 6
survivor count (T/C endpoint: median survival time, dose: 25.0 mg/kg/injection, schedule: Q04DX003 (ip), vehicle: distilled water + Tween-80): 3 of 6
survivor count (T/C endpoint: median survival time, dose: 50.0 mg/kg/injection, schedule: Q04DX003 (ip), vehicle: distilled water + Tween-80): 0 of 6
survivor count (T/C endpoint: median survival time, dose: 100.0 mg/kg/injection, schedule: Q04DX003 (ip), vehicle: distilled water + Tween-80): 0 of 6
survivor count (T/C endpoint: median survival time, dose: 200.0 mg/kg/injection, schedule: Q04DX003 (ip), vehicle: distilled water + Tween-80): 0 of 6

O=S(=O)(O)SCC1=NCCCCN1
survivor count [8]: 0 of 6
survivor count [9]: 0 of 6

O=C(OCC1OC(n2nc(N3CCOCC3)c(=O)[nH]c2=O)C(OC(=O)c2ccccc2)C1OC(=O)c1ccccc1)c1ccccc1 (stereo unspecified)
survivor count (T/C endpoint: mean survival time, dose: 100.0 mg/kg/injection, schedule: Q01DX005 (ip), vehicle: distilled water + Tween-80): 6 of 6
survivor count (T/C endpoint: mean survival time, dose: 200.0 mg/kg/injection, schedule: Q01DX005 (ip), vehicle: distilled water + Tween-80): 6 of 6

COC(=O)C([NH-])c1ccccc1.COC(=O)C([NH-])c1ccccc1.[Cl][Pt+2][Cl] (stereo unspecified)
survivor count (T/C endpoint: median survival time, dose: 200.0 mg/kg/injection, schedule: Q04DX003 (ip), vehicle: saline): 5 of 6

Cc1ccc(S(=O)(=O)n2nc(C3OC(CO)C(O)C3O)c(O)c2C(N)=O)cc1 (stereo unspecified)
T/C (T/C endpoint: median survival time, dose: 178.5 mg/kg/injection, schedule: Q01DX005 (ip), vehicle: saline): 132 % of control

O=C(Nc1cc(Cl)ccc1Cl)c1ccc(Cl)cc1Cl
survivor count [9]: 5 of 6

CC1CC(C)(C)[N+](C)=C(CCc2ccccc2)O1 (stereo unspecified)
survivor count [10]: 1 of 6
survivor count [4]: 0 of 6

C=CS(C=C)=NS(=O)(=O)c1ccc(C)cc1
survivor count (T/C endpoint: mean survival time, dose: 50.0 mg/kg/injection, schedule: Q01DX009 (ip), vehicle: Klucel (hydroxypropylcellulose) (HPC)): 0 of 6

CCCCC(=O)C1CN(C(C)(C)C)C1
survivor count (T/C endpoint: mean survival time, dose: 100.0 mg/kg/injection, schedule: Q01DX001 (ip), vehicle: saline with Tween-80): 0 of 6
survivor count [10]: 0 of 6
survivor count [4]: 0 of 6
